For at least one entry, the source does not settle the construct or the ends of the probe. Results from cells or extracts need not show a direct contact.
Target: PD-L1 on MDA-MB-231 cells (UniProt Q9NZQ7)
Assay: fluorescence microscopy of cells
Details: aptamer on coumarin-6 albumin nanoparticle, 5' thiol, T10 spacer, conjugated to BSA by Sulfo-SMCC, multivalent nanoparticle, protein on the cell surface, single-stranded DNA

Chains of the proteins cited; added tags and fusions are not shown. Residues count along the entry.
UniProt Q9NZQ7, 19-290: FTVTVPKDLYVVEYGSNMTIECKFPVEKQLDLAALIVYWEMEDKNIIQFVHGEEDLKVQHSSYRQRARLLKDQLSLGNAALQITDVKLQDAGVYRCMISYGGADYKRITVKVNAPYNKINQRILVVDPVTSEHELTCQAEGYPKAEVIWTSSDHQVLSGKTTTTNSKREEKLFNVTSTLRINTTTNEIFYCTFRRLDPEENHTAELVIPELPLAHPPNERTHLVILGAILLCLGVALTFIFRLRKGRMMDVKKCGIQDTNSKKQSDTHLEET

“TTTTTTTTTTACGGGCCACATCAACTCATTGATAGACAATGCGTCCACTGCCCGT [PD-L1 aptamer on albumin nanoparticle (PDL1-NP-cou6)]”: binds.

Source: paper PMC10056566
